# Assay results published in PubChem BioAssay AID493014 (National Center for Advancing Translational Sciences (NCATS), 2011).
# This is one part of the list. Further columns of the screen follow, without active or inactive calls. Most of these compounds were active or inconclusive in the main read-out, so they are no random draw. Potencies come from curve fits of mixed quality, noted in brackets.
# Test: qHTS Assay to Find Inhibitors of Chronic Active B-Cell Receptor Signaling
# Conditions: ABC-DLBCL IkBa-CBG/CBR reporter, luminescence ratio (green luciferase fused to IkBa over red control in TMD8 lymphoma cells), 4 h
# How it was run: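 TMD8 human ABC-DLBCL cells with doxycycline-inducible IκBα–green luciferase fusion and unfused red luciferase, in 0.5% FBS medium; compounds up to 46 uM, 4 h at 37C. Green/red luminescence ratio, filter-overlap corrected, fitted to concentration-response curves.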
# [1] = measured here: CBR red luminescence, cell number
Structure (SMILES),AC50 [1],AC50 (measured here: IkBa-CBG green luminescence)
O=C(NNC1=NS(=O)(=O)c2ccccc21)c1ccccc1,"0.282 µM [falling, full curve, poor fit]",
O=C(/C=C/c1ccc(F)cc1)NC(=S)Nc1ccccc1O,"14.1 µM [falling, partial curve]",
O=[N+]([O-])c1cccc(C(=S)N2CCN(c3ccc(F)cc3)CC2)c1,"35.5 µM [rising, single point]",
COc1ccc(C)cc1S(=O)(=O)N(CC(=O)N1CCOCC1)Cc1ccccc1,"6.51 µM [rising, partial curve, poor fit]",
C=CCNC(=S)Nc1ccc(OC(F)F)c(Cl)c1,"2.82 µM [rising, partial curve]",
COc1cccc(CNc2ncnc3ccc(-c4c(C)noc4C)cc23)c1,"0.82 µM [falling, full curve, poor fit]",
COc1ccccc1NS(=O)(=O)c1cc(NC(=O)c2cnccn2)ccc1N1CCOCC1,"0.1 µM [rising, full curve, poor fit]",
Cc1ccc(Cl)cc1NC(=O)CC1NCCNC1=O (centres undefined),"18.4 µM [rising, single point]",
Cc1nc(C)c(-c2ccc(SCc3ccc(Cl)cc3)nn2)s1,"28.2 µM [falling, single point]",
O=c1c2cn[nH]c2[nH]c(=S)n1-c1ccccc1F,"6.31 µM [rising, partial curve, poor fit]",
Cc1ccc(CS(=O)(=O)c2ncc(Cl)c(C(=O)Nc3nnc(C)s3)n2)cc1,"35.5 µM [falling, single point]",
O=C(CSC1=NS(=O)(=O)c2cc(Cl)ccc2N1)c1ccc(Cl)cc1,"0.651 µM [falling, full curve]",
O=C(CSc1nn(-c2ccc(Cl)cc2)c(=S)s1)N1CCN(C(=O)c2ccco2)CC1,"3.16 µM [falling, single point]",
COc1ccc(-c2nc(C(=O)NCCCN3CCOCC3)cc3c2[nH]c2ccccc23)cc1OC,"5.62 µM [falling, full curve]","5.62 µM [rising, full curve]"
CCNC(=O)NC(=O)COC(=O)c1ccccc1SCC(=O)NC(=O)NCC,"1.58 µM [falling, full curve]",
COc1ccc(OC)c(NC2=C(Cl)C(=O)N(Cc3ccccc3)C2=O)c1,"3.98 µM [falling, partial curve, poor fit]",
O=C1CCc2cc(S(=O)(=O)N3CCN(c4ccccc4F)CC3)ccc2N1,"29.1 µM [falling, single point]",
CNC(=S)Nc1cccc(S(=O)(=O)NC2=NCCC2)c1,"20 µM [falling, single point]",
c1ccc(-c2nnc(CN3CCN(c4ccccc4)CC3)o2)cc1,"35.5 µM [rising, single point]",
O=C(Nc1nccs1)c1ncc(Cl)c(Cl)c1Cl,"8.91 µM [falling, partial curve, poor fit]",
C[C@@H](NC(=O)c1nc[nH]c1C(=O)N1CCN(c2ccccc2)CC1)c1ccccc1,"0.82 µM [rising, full curve, poor fit]",

Structure (SMILES),AC50 [1],AC50 (measured here: IkBa-CBG green luminescence)
Cn1c(Oc2ccccc2NCc2cc(Br)ccc2O)cc(=O)n(C)c1=O,"29.1 µM [rising, single point]",
COc1cc(C(=O)NNC(=O)/C=C/c2ccccc2)cc(OC)c1OC,"14.6 µM [rising, single point]",
O=C(OCC(=O)N1CCCC1)c1ccc(OC(F)(F)F)cc1,"35.5 µM [rising, partial curve, poor fit]",
CC(=O)Nc1ccc(S(=O)(=O)N(C)c2ccc(OCC(=O)OCC(=O)N3CCCCC3)cc2)cc1,"25.1 µM [falling, single point]",
CCOC(=O)c1cc2sc(C)cc2n1CC(=O)N(CC)CC,"6.31 µM [falling, single point]",
Cc1c(OC(C)C(=O)NCCCN2CCOCC2)ccc2c3c(c(=O)oc12)CCC3 (centres undefined),"12.6 µM [rising, partial curve, poor fit]",
C=CCn1c(SCc2cc(=O)n3cc(C)ccc3n2)nnc1-c1ccc(F)cc1,"7.31 µM [rising, single point]",
COCCOC(=O)C1=C(C)NC2=C(C(=O)CC(c3cccs3)C2)C1c1ccsc1 (centres undefined),"11.2 µM [falling, partial curve, poor fit]",
CCCCCCc1nc(C(N)=O)c2[nH]c(=O)n(-c3ccccc3F)c2n1,"7.94 µM [rising, partial curve, poor fit]",
COc1ccc(-n2nccc2-c2nn(-c3cccc(OC)c3)c(=O)n(C)c2=O)cc1,"0.00517 µM [falling, full curve, poor fit]",
CCN1C(=NCCc2cccs2)N[C@@H](c2cccs2)C(C(=O)OC)=C1C,"7.08 µM [falling, partial curve]",
O=C(/C=C/c1ccc([N+](=O)[O-])cc1)Nc1cccc(S(=O)(=O)NC2=NCCCCC2)c1,"29.1 µM [falling, single point]",
Cc1cccc(Nc2nc(-c3ccc(F)cc3)cs2)n1,"0.158 µM [falling, partial curve, poor fit]",
CCOc1ccc(C2=Nc3ccccc3C(c3ccc(N4CCOCC4)cc3)=NN2)cc1,"5.62 µM [falling, full curve, poor fit]",
Oc1ccc(CN2CCCCC2)c2cccnc12,"4.61 µM [rising, partial curve, poor fit]",
COc1ccccc1CNc1cc(CSc2ccc(Cl)cc2)nc(C)n1,"29.1 µM [falling, single point]",
N#CC(=C1CCCC1)c1nc(-c2ccccc2)cs1,"1.58 µM [rising, partial curve]",
O=c1[nH]nc(SCCS(=O)(=O)c2ccc(F)cc2)n1-c1ccc2c(c1)OCCO2,"7.08 µM [falling, partial curve]",
CCOc1ccc(OCc2ccc(C(=O)OCc3ccccn3)o2)cc1,"7.94 µM [falling, partial curve]",
Cc1cc(NS(=O)(=O)c2ccc(NC(=O)/C=C/c3ccco3)cc2)nc(C)n1,"14.1 µM [falling, single point]",
Cc1ccc2nc(-c3ccc(N)cc3)sc2c1,"4.47 µM [falling, partial curve, poor fit]",

Structure (SMILES),AC50 [1],AC50 (measured here: IkBa-CBG green luminescence)
O=C(O)c1ccc(N/N=C/c2ccc(-c3ccccc3)cc2)cc1,"1.12 µM [falling, full curve]",
O=C(Nc1ccc(Cc2ccncc2)cc1)C1CCC(N2C(=O)C3C4C=CC(C5CC45)C3C2=O)CC1 (centres undefined),"0.731 µM [rising, full curve, poor fit]",
Cc1cc(O)ccc1N/C=C(\C#N)c1nc2ccccc2o1,"0.82 µM [rising, full curve, poor fit]",
O=C(O)c1ccc(NC(=O)c2cn(-c3ccccc3)nc2-c2ccc(Br)cc2)cc1,"14.1 µM [falling, partial curve, poor fit]",
CCN(Cc1ccccc1)C(c1cccs1)c1nnnn1C1CCCCC1 (centres undefined),"0.206 µM [rising, full curve, poor fit]",
O=C(CCCCn1c(=O)c2ccccc2n(CC(=O)Nc2ccc(F)cc2)c1=O)NCc1ccco1,"18.4 µM [falling, partial curve, poor fit]",
Cc1c(-c2nc(N)nc(Nc3ccccc3F)n2)oc2ccccc12,"5.17 µM [falling, partial curve, poor fit]",
O=C(c1cc2cc(Cl)ccc2[nH]1)N1CCc2ccccc2C1,"0.398 µM [rising, full curve]",
N/C(=N\OC(=O)COc1ccccc1Cl)c1ccccn1,"0.58 µM [rising, full curve, poor fit]",
CC(=O)c1ccc(C(=O)N2CCc3c([nH]c4ccccc34)C2c2cccc(C)n2)s1 (centres undefined),"25.1 µM [falling, single point]",
CC(=O)Nc1ccc(Nc2cc(C)nc(Nc3ccc(NC(C)=O)cc3)n2)cc1,"25.9 µM [falling, single point]",
COc1ccc(C2Nc3ccccc3C(=O)N2Cc2ccco2)cc1COc1ccccc1F (centres undefined),"7.31 µM [falling, partial curve, poor fit]",
Cc1ccc(N2C(=O)[C@@H]3[C@H](C2=O)[C@H]2C=CC=NN2[C@@H]3C(=O)Nc2ccc(Cl)cc2)cc1,"10 µM [falling, partial curve]",
Cc1occc1C(=O)N1CCN(Cc2ccccc2)CC1,"6.51 µM [falling, single point]",
CCOc1ccc(N2CC(C(=O)OCC(=O)c3ccc(OC)cc3)CC2=O)cc1 (centres undefined),"0.1 µM [rising, full curve, poor fit]",
COc1ccc([N+](=O)[O-])cc1NC(=O)/C=C/C(=O)O,"32.6 µM [falling, partial curve, poor fit]",
O=C(NCc1cccs1)c1cccc(Nc2nc3ccc(Br)cc3[nH]2)c1,"18.4 µM [falling, single point]",
CCOC(=O)c1c(O)c(O)c(C(=O)OCC)n1-c1ccccc1,"22.4 µM [falling, single point]",
Cc1ccccc1-n1nc(C)c2cc(C(=O)NC3CC3)sc21,"0.411 µM [rising, full curve]",
Cc1cc(=O)[nH]c2nnc(-c3ccc(Cl)cc3)n12,"0.891 µM [falling, full curve]",
COc1ccc(C(=S)N2CCN(c3cccc(Cl)c3)CC2)cc1,"0.1 µM [rising, full curve, poor fit]",

# Random excerpt: 4 records from the list.
Structure (SMILES),AC50 [1],AC50 (measured here: IkBa-CBG green luminescence)
Cc1c(-c2nc(N)nc(Nc3ccccc3F)n2)oc2ccccc12,"5.17 µM [falling, partial curve, poor fit]",
O=C(O)c1ccc(NC(=O)c2cn(-c3ccccc3)nc2-c2ccc(Br)cc2)cc1,"14.1 µM [falling, partial curve, poor fit]",
Cc1cc(=O)[nH]c2nnc(-c3ccc(Cl)cc3)n12,"0.891 µM [falling, full curve]",
CCOC(=O)c1c(O)c(O)c(C(=O)OCC)n1-c1ccccc1,"22.4 µM [falling, single point]",
